Test results taken from the supplement of paper PMC7238544.
Where a name gives a salt, the structure may show the parent alone. ± gives the standard deviation of the averaged measurements. The list shows a part of the results. The data scatter; read single values as rough.

Assays:
hAMSC donor 1 [1] = test: Hoechst total cell count ratio vs vehicle control; higher = more cells (less toxicity)
hAMSC donor 2 [2] = test: as above
hAMSC donor 1 [3] = test: transgenic luciferase activity (RLU/mg protein) fold change vs vehicle control (ratio); higher = more transgene expression
hAMSC donor 2 [4] = test: as above
hAMSC donor 1 [5] = test: transfection efficiency (EGFP+ cells / Hoechst count) fold change vs vehicle control (ratio); hAMSC are human adipose-derived mesenchymal stem cells given an EGFP-luciferase plasmid by lipofection; higher = enhanced transfection
hAMSC donor 2 [6] = test: as above
[7] = priming compound concentration 0.2 µM
[8] = priming compound concentration 1.7 µM
[9] = priming compound concentration 13 µM

Row | Structure (SMILES) | Hoechst total cell count ratio (hAMSC donor 1 [1]; [7]) | Hoechst total cell count ratio (hAMSC donor 1 [1]; [8]) | Hoechst total cell count ratio (hAMSC donor 1 [1]; [9]) | Hoechst total cell count ratio (hAMSC donor 2 [2]; [7]) | Hoechst total cell count ratio (hAMSC donor 2 [2]; [8]) | Hoechst total cell count ratio (hAMSC donor 2 [2]; [9]) | transgenic luciferase activity (hAMSC donor 1 [3]; [8]) | transgenic luciferase activity (hAMSC donor 1 [3]; [9]) | transgenic luciferase activity (hAMSC donor 2 [4]; [8]) | transgenic luciferase activity (hAMSC donor 2 [4]; [9]) | transfection efficiency (hAMSC donor 1 [5]; [7]) | transfection efficiency (hAMSC donor 1 [5]; [8]) | transfection efficiency (hAMSC donor 1 [5]; [9]) | transfection efficiency (hAMSC donor 2 [6]; [7]) | transfection efficiency (hAMSC donor 2 [6]; [8]) | transfection efficiency (hAMSC donor 2 [6]; [9]) | transgenic luciferase activity (hAMSC donor 1 [3]; [7]) | transgenic luciferase activity (hAMSC donor 2 [4]; [7])
1 | c1ccc2[nH]c(-c3cscn3)nc2c1 [Thiabendazole] | 1.41 ± 0.081 | 0.746 ± 0.2 | 1.06 ± 0.057 | 0.805 ± 0.24 | 0.815 ± 0.16 | 1.23 ± 0.15 | 0.439 ± 0.3 | 1.22 ± 0.38 | 0.535 ± 0.04 | 0.398 ± 0.076 | 1.17 ± 0.72 | 1.58 ± 0.69 | 1.6 ± 0.39 | 1.61 ± 0.63 | 1.06 ± 0.24 | 1 ± 0.21 | – | –
2 | CN(C)CCOC(c1ccc(Cl)cc1)c1ccccn1 (stereo not given) [Carbinoxamine maleate] | 1.12 ± 0.17 | 1.55 ± 0.16 | 1.42 ± 0.28 | 1.15 ± 0.038 | 0.888 ± 0.14 | 1.06 ± 0.098 | 1.27 ± 0.1 | – | 0.511 ± 0.081 | 0.482 ± 0.14 | 1.08 ± 0.15 | 1.12 ± 0.2 | 1.06 ± 0.22 | 0.864 ± 0.046 | 1.4 ± 0.06 | 1.2 ± 0.12 | 0.624 ± 0.24 | –
3 | Cn1ccnc1S [Methimazole] | 1.19 ± 0.28 | 1.64 ± 0.17 | 1.31 ± 0.32 | 1.14 ± 0.025 | 0.827 ± 0.034 | 0.842 ± 0.22 | 1.35 ± 0.15 | – | 0.649 ± 0.23 | 0.442 ± 0.085 | 1.01 ± 0.32 | 0.931 ± 0.15 | 0.984 ± 0.18 | 0.877 ± 0.032 | 1.3 ± 0.19 | 1.18 ± 0.11 | 0.473 ± 0.24 | –
4 | O=C1CN(/N=C/c2ccc([N+](=O)[O-])o2)C(=O)N1 [Nitrofurantoin] | 1.19 ± 0.15 | 1.12 ± 0.093 | 1.29 ± 0.082 | 1.19 ± 0.06 | 0.779 ± 0.042 | 0.829 ± 0.094 | 0.285 ± 0.18 | – | 1.76 ± 0.58 | 0.38 ± 0.051 | 1.1 ± 0.2 | 1.091 ± 0.0066 | 0.91 ± 0.1 | 1.1 ± 0.3 | 1.14 ± 0.27 | 1.01 ± 0.23 | 0.478 ± 0.072 | –
5 | CC(=O)OCC[N+](C)(C)C [Acetylcholine chloride] | 1.273 ± 0.011 | 1.09 ± 0.16 | 1.05 ± 0.065 | 0.991 ± 0.0076 | 1.32 ± 0.32 | 1.03 ± 0.099 | – | 6.21 ± 1.6 | 0.53 ± 0.084 | – | 1.16 ± 0.17 | 1.06 ± 0.27 | 0.983 ± 0.17 | 1.21 ± 0.081 | 1.04 ± 0.062 | 1.17 ± 0.28 | 0.434 ± 0.25 | 0.708 ± 0.12
6 | C=C(CC)C(=O)c1ccc(OCC(=O)O)c(Cl)c1Cl [Ethacrynic acid] | 1.18 ± 0.11 | 0.908 ± 0.2 | 0.883 ± 0.089 | 1.41 ± 0.21 | 1.34 ± 0.41 | 1.26 ± 0.46 | 1.84 ± 1.7 | 0.792 ± 0.17 | 0.718 ± 0.042 | 0.395 ± 0.054 | 1.28 ± 0.3 | 0.971 ± 0.41 | 1.27 ± 0.23 | 1.05 ± 0.11 | 1.18 ± 0.048 | 1.13 ± 0.39 | – | –
7 | CN1CCC(=C2c3ccccc3C=Cc3ccccc32)CC1 [Cyproheptadine hydrochloride] | 1.33 ± 0.074 | 0.52 ± 0.069 | 1.25 ± 0.16 | 0.73 ± 0.27 | 0.926 ± 0.12 | 1.37 ± 0.11 | 1.94 ± 3.1 | 0.597 ± 0.091 | 0.649 ± 0.063 | 0.315 ± 0.085 | 1.13 ± 0.22 | 1.76 ± 0.15 | 1.19 ± 0.4 | 1.42 ± 0.16 | 1.23 ± 0.15 | 1.03 ± 0.064 | – | –
8 | CC(C)n1c(/C=C/C(O)CC(O)CC(=O)O)c(-c2ccc(F)cc2)c2ccccc21 (stereo not given) [Fluvastatin] | 1.05 ± 0.17 | 0.807 ± 0.2 | 0.8 ± 0.11 | 0.792 ± 0.26 | 0.608 ± 0.12 | 1.08 ± 0.17 | 0.7 ± 0.53 | 0.7249 ± 0.0055 | 0.926 ± 0.087 | 0.421 ± 0.12 | 1.51 ± 0.35 | 2.37 ± 0.78 | 2.07 ± 0.73 | 1.11 ± 0.31 | 1.63 ± 0.15 | 1.02 ± 0.28 | – | –
9 | C[C@]12C=CC(=O)C=C1CC[C@@H]1[C@@H]2[C@@H](O)C[C@@]2(C)[C@H]1CC[C@]2(O)C(=O)CO [Prednisolone] | 1.34 ± 0.41 | 1.27 ± 0.14 | 1.08 ± 0.077 | 1.05 ± 0.1 | 1.87 ± 0.44 | 2.38 ± 0.56 | 3.89 ± 4 | 6.49 ± 0.95 | 2.72 ± 0.27 | 2.57 ± 0.8 | 1.46 ± 0.56 | 1.35 ± 0.59 | 2 ± 0.17 | 1.31 ± 0.11 | 1.56 ± 0.27 | 1.17 ± 0.27 | – | –
10 | CC(=O)OCC(=O)[C@@]1(O)CC[C@H]2[C@@H]3C[C@H](C)C4=CC(=O)C=C[C@]4(C)[C@H]3[C@@H](O)C[C@@]21C [Methylprednisolone acetate] | 1.16 ± 0.18 | 1.73 ± 0.12 | 1.19 ± 0.15 | 1.59 ± 0.54 | 1.82 ± 0.44 | 2.09 ± 0.18 | 4.6 ± 0.41 | 6.54 ± 1.7 | 2.92 ± 1.1 | 1.84 ± 0.3 | 1.91 ± 0.26 | 0.968 ± 0.33 | 2.25 ± 0.98 | 1.28 ± 0.46 | 2.13 ± 0.28 | 1.7 ± 0.34 | – | –
11 | CN(C)c1ccc(O)c2c1C[C@H]1C[C@H]3[C@H](N(C)C)C(O)=C(C(N)=O)C(=O)[C@@]3(O)C(O)=C1C2=O [Minocycline hydrochloride] | 1.32 ± 0.15 | 1.17 ± 0.27 | 0.967 ± 0.055 | 0.889 ± 0.4 | 1.09 ± 0.41 | 0.976 ± 0.18 | 0.604 ± 0.42 | 1.41 ± 0.59 | 0.57 ± 0.14 | 0.431 ± 0.11 | 0.958 ± 0.17 | 1.04 ± 0.45 | 1.56 ± 0.36 | 1.44 ± 0.34 | 1.34 ± 0.46 | 1.3 ± 0.59 | – | –
12 | Cn1c(=O)c2nc[nH]c2n(C)c1=O [Theophylline] | 1.17 ± 0.048 | 1.55 ± 0.22 | 1.35 ± 0.43 | 1.04 ± 0.22 | 1 ± 0.27 | 0.926 ± 0.19 | 0.507 ± 0.12 | – | 0.854 ± 0.11 | 0.408 ± 0.27 | 1.19 ± 0.047 | 1.01 ± 0.16 | 1.06 ± 0.25 | 1.4 ± 0.53 | 1.16 ± 0.32 | 0.877 ± 0.014 | 0.541 ± 0.021 | –
13 | CC(C)(C)NCC(O)COc1cccc2c1CC(O)C(O)C2 (stereo not given) [Nadolol] | 1.11 ± 0.086 | 1.65 ± 0.021 | 1.39 ± 0.15 | 1.12 ± 0.13 | 1.12 ± 0.058 | 1.37 ± 0.23 | – | 0.732 ± 0.11 | 0.914 ± 0.12 | 0.587 ± 0.091 | 1.08 ± 0.2 | 1.02 ± 0.18 | 1.22 ± 0.23 | 1.05 ± 0.085 | 1.12 ± 0.035 | 0.794 ± 0.041 | – | 0.521 ± 0.21
14 | CNCC(O)c1ccc(O)c(O)c1 (stereo not given) [Racepinephrine] | 1.3 ± 0.089 | 1.38 ± 0.3 | 1.5 ± 0.27 | 1.14 ± 0.051 | 0.809 ± 0.059 | 1.34 ± 0.16 | – | 0.616 ± 0.46 | 0.501 ± 0.062 | – | 1.06 ± 0.34 | 1.21 ± 0.19 | 0.98 ± 0.14 | 1.01 ± 0.045 | 1.1 ± 0.05 | 0.68 ± 0.23 | 1.2 ± 0.4 | 0.709 ± 0.076
15 | C[C@H]1C[C@@H]2[C@H]([C@@H](O)C[C@@]3(C)[C@H]2CC[C@]3(O)C(=O)CO)[C@@]2(C)C=CC(=O)C=C12 [Methylprednisolone] | 1.57 ± 0.27 | 1.68 ± 0.034 | 1.24 ± 0.1 | 1.11 ± 0.34 | 1.32 ± 0.17 | 1.38 ± 0.15 | 3.89 ± 1.9 | 8.92 ± 0.29 | 2.43 ± 0.18 | 1.92 ± 0.33 | 1.75 ± 0.85 | 2.22 ± 0.15 | 2.46 ± 0.8 | 1.49 ± 0.34 | 1.84 ± 0.2 | 1.86 ± 0.21 | – | –

Some of the entries above in another layout.
Row	Structure (SMILES)	Hoechst total cell count ratio (hAMSC donor 1 [1]; [7])	Hoechst total cell count ratio (hAMSC donor 1 [1]; [8])	Hoechst total cell count ratio (hAMSC donor 1 [1]; [9])	Hoechst total cell count ratio (hAMSC donor 2 [2]; [7])	Hoechst total cell count ratio (hAMSC donor 2 [2]; [8])	Hoechst total cell count ratio (hAMSC donor 2 [2]; [9])	transgenic luciferase activity (hAMSC donor 1 [3]; [8])	transgenic luciferase activity (hAMSC donor 1 [3]; [9])	transgenic luciferase activity (hAMSC donor 2 [4]; [8])	transgenic luciferase activity (hAMSC donor 2 [4]; [9])	transfection efficiency (hAMSC donor 1 [5]; [7])	transfection efficiency (hAMSC donor 1 [5]; [8])	transfection efficiency (hAMSC donor 1 [5]; [9])	transfection efficiency (hAMSC donor 2 [6]; [7])	transfection efficiency (hAMSC donor 2 [6]; [8])	transfection efficiency (hAMSC donor 2 [6]; [9])	transgenic luciferase activity (hAMSC donor 1 [3]; [7])	transgenic luciferase activity (hAMSC donor 2 [4]; [7])
3	Cn1ccnc1S [Methimazole]	1.19 ± 0.28	1.64 ± 0.17	1.31 ± 0.32	1.14 ± 0.025	0.827 ± 0.034	0.842 ± 0.22	1.35 ± 0.15	–	0.649 ± 0.23	0.442 ± 0.085	1.01 ± 0.32	0.931 ± 0.15	0.984 ± 0.18	0.877 ± 0.032	1.3 ± 0.19	1.18 ± 0.11	0.473 ± 0.24	–
5	CC(=O)OCC[N+](C)(C)C [Acetylcholine chloride]	1.273 ± 0.011	1.09 ± 0.16	1.05 ± 0.065	0.991 ± 0.0076	1.32 ± 0.32	1.03 ± 0.099	–	6.21 ± 1.6	0.53 ± 0.084	–	1.16 ± 0.17	1.06 ± 0.27	0.983 ± 0.17	1.21 ± 0.081	1.04 ± 0.062	1.17 ± 0.28	0.434 ± 0.25	0.708 ± 0.12
12	Cn1c(=O)c2nc[nH]c2n(C)c1=O [Theophylline]	1.17 ± 0.048	1.55 ± 0.22	1.35 ± 0.43	1.04 ± 0.22	1 ± 0.27	0.926 ± 0.19	0.507 ± 0.12	–	0.854 ± 0.11	0.408 ± 0.27	1.19 ± 0.047	1.01 ± 0.16	1.06 ± 0.25	1.4 ± 0.53	1.16 ± 0.32	0.877 ± 0.014	0.541 ± 0.021	–
13	CC(C)(C)NCC(O)COc1cccc2c1CC(O)C(O)C2 (stereo not given) [Nadolol]	1.11 ± 0.086	1.65 ± 0.021	1.39 ± 0.15	1.12 ± 0.13	1.12 ± 0.058	1.37 ± 0.23	–	0.732 ± 0.11	0.914 ± 0.12	0.587 ± 0.091	1.08 ± 0.2	1.02 ± 0.18	1.22 ± 0.23	1.05 ± 0.085	1.12 ± 0.035	0.794 ± 0.041	–	0.521 ± 0.21
